## Cleaved PARP in drug-treated melanoma cells

Data from the primary screen of doi:10.1371/journal.pone.0140310, rounded.

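Human melanoma cell lines in 1,536-well plates were treated with two drugs together for 72 h, then fixed, stained and imaged. The read-out is the fraction of cleaved-PARP-positive nuclei, in % of that fraction in the DMSO control; 200 means twice the control level of this apoptosis marker. Every drug was used at one fixed concentration, the higher of two screened. The file gives one value for each pair and line, without errors, so small differences may be noise. The marker varies much from line to line, for technical or biological reasons.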
Only some of the drugs and lines screened are listed, without regard to their results.
An entry leaves out what has no value listed here.
A dash means that no value is listed here.

Compounds and concentrations:
tanespimycin, 0.01 µM: C=CCNC1=C2C[C@@H](C)C[C@H](OC)[C@H](O)[C@@H](C)/C=C(\C)[C@H](OC(N)=O)[C@@H](OC)/C=C\C=C(/C)C(=O)NC(=CC1=O)C2=O
everolimus, 0.1 µM: CO[C@H]1C[C@@H]2CC[C@@H](C)[C@@](O)(O2)C(=O)C(=O)N2CCCC[C@H]2C(=O)O[C@H]([C@H](C)C[C@@H]2CC[C@@H](OCCO)[C@H](OC)C2)CC(=O)[C@H](C)/C=C(\C)[C@@H](O)[C@@H](OC)C(=O)[C@H](C)C[C@H](C)/C=C/C=C/C=C/1C
crizotinib, 1 µM: C[C@@H](Oc1cc(-c2cnn(C3CCNCC3)c2)cnc1N)c1c(Cl)ccc(F)c1Cl
veliparib, 7 µM: C[C@]1(c2nc3c(C(N)=O)cccc3[nH]2)CCCN1

Cell line,everolimus + crizotinib,crizotinib + tanespimycin,veliparib + crizotinib,veliparib + everolimus,veliparib + tanespimycin
UACC-62,232,171,184,347,252
RVH-421,137,78.5,146,127,116
SK-MEL-30,192,99.3,176,105,113
MEL-HO,68.3,80.0,44.8,59.8,110
LB2518-MEL,165,-,175,91.6,485
WM3619,115,147,118,203,188
COLO 792,149,83.8,118,171,146
SK-MEL-5,346,68.2,273,270,208
WM3526,216,80.1,191,133,162
MZ2-MEL,197,-,184,178,150
COLO 800,132,106,226,19.4,152
IST-MEL1,126,31.9,235,67.5,64.4
WM115,280,1300,442,400,779
WM1745,100,157,210,124,135
G-361,175,315,86.5,130,220
SK-MEL-28,118,147,139,68.6,281
MeWo,97.6,144,88.8,65.3,92.7
SK-MEL-2,180,123,126,81.0,209
LOX IMVI,210,107,35.3,151,164
COLO 829,148,215,122,154,159
C32,76.0,998,56.1,439,506
IPC-298,305,65.9,84.6,202,244
UACC-257,56.8,78.1,93.8,96.2,24.2
WM451Lu,53.3,144,94.7,209,163
RPMI-7951,117,350,68.7,201,299
A2058,287,163,212,190,478
WM1716,68.3,61.8,115,130,38.6
A101D,89.7,218,36.4,93.3,187
A375,32.9,79.5,53.3,66.9,120

The first 2 entries again:

{"cell line": "UACC-62", "everolimus + crizotinib": 232, "crizotinib + tanespimycin": 171, "veliparib + crizotinib": 184, "veliparib + everolimus": 347, "veliparib + tanespimycin": 252}
{"cell line": "RVH-421", "everolimus + crizotinib": 137, "crizotinib + tanespimycin": 78.5, "veliparib + crizotinib": 146, "veliparib + everolimus": 127, "veliparib + tanespimycin": 116}